# Source: the supplement of paper PMC8728848
# Some of the results follow.
# Columns and labels:
# Assay in all cases: glycan array binding signal (z-score within array); higher = stronger binding
# Details in all cases: glycan notation: IUPAC condensed, linker removed
# [1] = target: Gal(b1-3)GlcNAc(b1-2)Man(a1-3)[Gal(b1-3)GlcNAc(b1-2)Man(a1-6)]Man(b1-4)GlcNAc(b1-4)GlcNAc
# In short: (§1)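 Glycan array binding is given as a within-array Z-score, which can be read as non-binding when negative. The arrays, 3228 of them, came from the Consortium for Functional Glycomics database and were retained only where the protein sequence was available. Z-scores were averaged across arrays of the same protein sequence at different concentrations or buffers and across linkers.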
# [2] = target: Gal(b1-3)GlcNAc(b1-2)Man(a1-3)[Gal(b1-3)GlcNAc(b1-2)Man(a1-6)]Man(b1-4)GlcNAc(b1-4)[Fuc(a1-6)]GlcNAc
# In short: as §1
# [3] = target: Gal(b1-3)GlcNAc(b1-2)Man(a1-3)[GlcNAc(b1-4)][Gal(b1-3)GlcNAc(b1-2)Man(a1-6)]Man(b1-4)GlcNAc(b1-4)GlcNAc
# In short: as §1
# [4] = target: Gal(b1-3)GlcNAc(b1-2)[Gal(b1-3)GlcNAc(b1-6)]Man(a1-6)[Gal(b1-3)GlcNAc(b1-2)Man(a1-3)]Man(b1-4)GlcNAc(b1-4)GlcNAc
# In short: as §1
# [5] = target: Gal(b1-3)GlcNAc(b1-3)Gal(b1-3)GlcNAc
# In short: as §1
# [6] = target: Gal(b1-3)GlcNAc(b1-3)Gal(b1-4)Glc
# In short: as §1
# [7] = target: Gal(b1-3)GlcNAc(b1-3)Gal(b1-4)GlcNAc
# In short: as §1
# [8] = target: Gal(b1-3)GlcNAc(b1-3)Gal(b1-4)GlcNAc(b1-2)Man(a1-3)[Gal(b1-3)GlcNAc(b1-3)Gal(b1-4)GlcNAc(b1-2)Man(a1-6)]Man(b1-4)GlcNAc(b1-4)GlcNAc
# In short: as §1
# [9] = target: Gal(b1-3)GlcNAc(b1-3)Gal(b1-4)GlcNAc(b1-2)[Gal(b1-3)GlcNAc(b1-3)Gal(b1-4)GlcNAc(b1-6)]Man(a1-6)[Gal(b1-3)GlcNAc(b1-3)Gal(b1-4)GlcNAc(b1-2)Man(a1-3)]Man(b1-4)GlcNAc(b1-4)[Fuc(a1-6)]GlcNAc
# In short: as §1
# [10] = target: Gal(b1-3)GlcNAc(b1-3)Gal(b1-4)GlcNAc(b1-3)Gal(b1-4)GlcNAc(b1-2)[Gal(b1-3)GlcNAc(b1-3)Gal(b1-4)GlcNAc(b1-3)Gal(b1-4)GlcNAc(b1-6)]Man(a1-6)[Gal(b1-3)GlcNAc(b1-3)Gal(b1-4)GlcNAc(b1-3)Gal(b1-4)GlcNAc(b1-2)Man(a1-3)]Man(b1-4)GlcNAc(b1-4)[Fuc(a1-6)]GlcNAc
# In short: as §1
# [11] = target: Gal(b1-3)GlcNAc(b1-3)Gal(b1-4)GlcNAc(b1-6)[Gal(b1-3)GlcNAc(b1-3)]Gal(b1-4)Glc
# In short: as §1
# [12] = target: Gal(b1-3)GlcNAc(b1-3)Gal(b1-4)[Fuc(a1-3)]GlcNAc
# In short: as §1
# [13] = target: Gal(b1-3)GlcNAc(b1-3)Gal(b1-4)[Fuc(a1-3)]GlcNAc(b1-6)[Gal(b1-3)GlcNAc(b1-3)]Gal(b1-4)Glc
# In short: as §1
# [14] = target: Gal(b1-3)GlcNAc(b1-3)GalNAc
# In short: as §1
# [15] = target: Gal(b1-3)GlcNAc(b1-6)Gal(b1-4)GlcNAc
# In short: as §1
# [16] = target: Gal(b1-3)GlcNAc(b1-6)GalNAc
# In short: as §1
# [17] = target: Gal(b1-3)GlcNAc(b1-6)[Gal(b1-3)]GalNAc
# In short: as §1
# [18] = target: Gal(b1-3)GlcNAc6S
# In short: as §1
# [19] = target: Gal(b1-3)[Fuc(a1-4)]GlcNAc
# In short: as §1
# [20] = target: Gal(b1-3)[Fuc(a1-4)]GlcNAc(b1-2)Man
# In short: as §1
# [21] = target: Gal(b1-3)[Fuc(a1-4)]GlcNAc(b1-2)Man(a1-3)[Gal(b1-3)[Fuc(a1-4)]GlcNAc(b1-2)Man(a1-6)]Man(b1-4)GlcNAc(b1-4)[Fuc(a1-6)]GlcNAc
# In short: as §1
# [22] = target: Gal(b1-3)[Fuc(a1-4)]GlcNAc(b1-3)Gal(b1-3)[Fuc(a1-4)]GlcNAc
# In short: as §1
# [23] = target: Gal(b1-3)[Fuc(a1-4)]GlcNAc(b1-3)Gal(b1-4)[Fuc(a1-3)]GlcNAc
# In short: as §1
# [24] = target: Gal(b1-3)[Fuc(a1-4)]GlcNAc(b1-6)GalNAc
# In short: as §1
# [25] = target: Gal(b1-3)[GlcNAc(b1-6)]GalNAc
# In short: as §1
# [26] = target: Gal(b1-3)[Neu5Ac(a2-6)]GalNAc
# In short: as §1
# [27] = target: Gal(b1-3)[Neu5Ac(a2-6)]GlcNAc(b1-4)Gal(b1-4)Glc
# In short: as §1
# [28] = target: Gal(b1-3)[Neu5Ac(b2-6)]GalNAc
# In short: as §1
# [29] = target: Gal(b1-4)Gal
# In short: as §1
# [30] = target: Gal(b1-4)GalNAc(a1-3)[Fuc(a1-2)]Gal(b1-4)GlcNAc
# In short: as §1
binder,measurement,setting,value
"CcfD (Bacteroides vulgatus), A6KYX8 (protein) MKYKNYFKSIIYLALGAFTLGSCEDFLDRQEDEKLTFDKIWESRNTTQQYWLNAMSFLPNENGSLQGDTEPYLGASDECTIAYDRQYRWINFGTWNPSQVPYYKMDHYYKGIRECNIFLQNVYKCSDPLVTKDQLDEWYWQTRFARAYYYFLMMRDYGPVFLLGDDLLDFTASTEELYRPRNTWDQCVNYVVSEMTQCAESGVVLQQSDLPAAKWGLATVGTCHAVISRLLLYSARPLFNGNKLYSTVKNPDAPDFPELSGVKLFPELDNTKWQKAAEAAKKLIDNPCYELYRAGNDNPYEDYYGVTHETWNKELIWTDRYNGLFSWGVGTVPTGVAGTAYGAVGPTQALVDAYAMNTGWYPITGYEADGTPIVEPLSGYELASELEKSSWIYPSGGWSNKADFEIEAPNMYKDREPRFYVTVFFGGNQWLHGNSATSISFAKGGNGNKSHDYPKSGYLCNRFYDHKLNSSEGQWGNITFPVFRLGEIYLNFIEAVLECKKNGVALDPSYEALAMEKWADLRKRAGLDPITSIYGQVSTEELIQLCRKERQIELAFERHRYFDTRTWMIATQTDNGKMYGMNTSCPLDAGMKGTETPDGFWERTAFETRVFQNKHYLYPFSQRELDRNKLLTQNYGW",glycan array binding signal (z-score),[1],-0.185
same,glycan array binding signal (z-score),[2],1.02
same,glycan array binding signal (z-score),[3],-0.881
same,glycan array binding signal (z-score),[4],-0.47
same,glycan array binding signal (z-score),[5],0.958
same,glycan array binding signal (z-score),[6],-0.912
same,glycan array binding signal (z-score),[7],-0.693
same,glycan array binding signal (z-score),[8],-0.343
same,glycan array binding signal (z-score),[9],-0.759
same,glycan array binding signal (z-score),[10],0.999
same,glycan array binding signal (z-score),[11],-0.526
same,glycan array binding signal (z-score),[12],-0.668
same,glycan array binding signal (z-score),[13],-0.642
same,glycan array binding signal (z-score),[14],-0.2
same,glycan array binding signal (z-score),[15],-0.932
same,glycan array binding signal (z-score),[16],0.841
same,glycan array binding signal (z-score),[17],-0.083
same,glycan array binding signal (z-score),[18],-0.947
same,glycan array binding signal (z-score),[19],-0.269
same,glycan array binding signal (z-score),[20],-0.983
same,glycan array binding signal (z-score),[21],1.41
same,glycan array binding signal (z-score),[22],-0.871
same,glycan array binding signal (z-score),[23],1.52
same,glycan array binding signal (z-score),[24],-0.022
same,glycan array binding signal (z-score),[25],-0.348
same,glycan array binding signal (z-score),[26],0.796
same,glycan array binding signal (z-score),[27],-0.698
same,glycan array binding signal (z-score),[28],-0.861
same,glycan array binding signal (z-score),[29],-0.673
same,glycan array binding signal (z-score),[30],-0.409

# Given as tab-separated lines: entries from further up
binder	measurement	setting	value
CcfD (Bacteroides vulgatus), A6KYX8 (protein) MKYKNYFKSIIYLALGAFTLGSCEDFLDRQEDEKLTFDKIWESRNTTQQYWLNAMSFLPNENGSLQGDTEPYLGASDECTIAYDRQYRWINFGTWNPSQVPYYKMDHYYKGIRECNIFLQNVYKCSDPLVTKDQLDEWYWQTRFARAYYYFLMMRDYGPVFLLGDDLLDFTASTEELYRPRNTWDQCVNYVVSEMTQCAESGVVLQQSDLPAAKWGLATVGTCHAVISRLLLYSARPLFNGNKLYSTVKNPDAPDFPELSGVKLFPELDNTKWQKAAEAAKKLIDNPCYELYRAGNDNPYEDYYGVTHETWNKELIWTDRYNGLFSWGVGTVPTGVAGTAYGAVGPTQALVDAYAMNTGWYPITGYEADGTPIVEPLSGYELASELEKSSWIYPSGGWSNKADFEIEAPNMYKDREPRFYVTVFFGGNQWLHGNSATSISFAKGGNGNKSHDYPKSGYLCNRFYDHKLNSSEGQWGNITFPVFRLGEIYLNFIEAVLECKKNGVALDPSYEALAMEKWADLRKRAGLDPITSIYGQVSTEELIQLCRKERQIELAFERHRYFDTRTWMIATQTDNGKMYGMNTSCPLDAGMKGTETPDGFWERTAFETRVFQNKHYLYPFSQRELDRNKLLTQNYGW	glycan array binding signal (z-score)	[3]	-0.881
same	glycan array binding signal (z-score)	[4]	-0.47
